Source: the supplement of paper PMC4604168 (melanoma cell lines)
The other results are listed elsewhere or left out. Many values rest on one well or one pass, so single values are uncertain.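 Cells were imaged in 1,536-well plates, and nuclei stained with an antibody against cleaved PARP were counted against all DNA-stained nuclei to give the apoptosis fraction. Screening doses were chosen to leave most cells alive, and resting and induced cleaved-PARP levels differ strongly between cell lines.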

What was measured:
Test in all cases: cleaved PARP positive nuclei fraction relative to DMSO control; melanoma cells; higher = more apoptosis
Settings in all cases: library dose: low library concentration; 72 h
MZ2-MEL = tested on: MZ2-MEL
MeWo = tested on: MeWo
RPMI7951 = tested on: RPMI7951
RVH-421 = tested on: RVH-421
SkMel28 = tested on: SkMel28
SkMel2 = tested on: SkMel2
SkMel30 = tested on: SkMel30
SkMel5 = tested on: SkMel5
UACC257 = tested on: UACC257
UACC62 = tested on: UACC62
WM115 = tested on: WM115
WM1716 = tested on: WM1716
WM1745 = tested on: WM1745
WM3526 = tested on: WM3526
WM3619 = tested on: WM3619
WM451Lu = tested on: WM451Lu

SMILES | cleaved PARP positive nuclei fraction (MZ2-MEL) [%] | cleaved PARP positive nuclei fraction (MeWo) [%] | cleaved PARP positive nuclei fraction (RPMI7951) [%] | cleaved PARP positive nuclei fraction (RVH-421) [%] | cleaved PARP positive nuclei fraction (SkMel28) [%] | cleaved PARP positive nuclei fraction (SkMel2) [%] | cleaved PARP positive nuclei fraction (SkMel30) [%] | cleaved PARP positive nuclei fraction (SkMel5) [%] | cleaved PARP positive nuclei fraction (UACC257) [%] | cleaved PARP positive nuclei fraction (UACC62) [%] | cleaved PARP positive nuclei fraction (WM115) [%] | cleaved PARP positive nuclei fraction (WM1716) [%] | cleaved PARP positive nuclei fraction (WM1745) [%] | cleaved PARP positive nuclei fraction (WM3526) [%] | cleaved PARP positive nuclei fraction (WM3619) [%] | cleaved PARP positive nuclei fraction (WM451Lu) [%]
CC(C)C[C@H](NC(=O)[C@H](Cc1ccccc1)NC(=O)c1cnccn1)B(O)O [Bortezomib] + Oc1cc(-c2nc(-c3ccccc3)[nH]c2-c2ccncc2)ccc1Cl [L779450] (first compound 0.001 µM, partner dose 0.2 µM) | 101 | 93.1 | 120 | 138 | 346 | 75.5 | 171 | 120 | 118 | 247 | 95.1 | 462 | 264 | 48.6 | 477 | 53.4
Cc1cc(Nc2cc(N3CCN(C)CC3)nc(/C=C/c3ccccc3)n2)n[nH]1 + CC(=O)c1c(C)c2cnc(Nc3ccc(N4CCNCC4)cn3)nc2n(C2CCCC2)c1=O [palbociclib] (first compound 0.04 µM, partner dose 0.04 µM) | 55.1 | 72.7 | 242 | 277 | 88.3 | 57.5 | 101 |  |  | 185 | 81.3 | 91.3 | 141 | 129 | 117 | 64.6
CN1CCN(c2ccc3nc(-c4c(N)c5c(F)cccc5[nH]c4=O)[nH]c3c2)CC1 [Dovitinib] + COc1cc2c(Oc3ccc4[nH]c(C)cc4c3F)ncnc2cc1OCCCN1CCCC1 [cediranib] (first compound 0.1 µM, partner dose 0.4 µM) | 192 | 74 | 174 | 75.4 | 67.1 | 46.6 | 181 | 49.3 | 151 | 80.9 | 166 | 70.7 | 119 | 87.6 | 87.1 | 49.3
Cn1c(=O)n(-c2ccc(C(C)(C)C#N)cc2)c2c3cc(-c4cnc5ccccc5c4)ccc3ncc21 + NCC(=O)Nc1ccc(-n2nc(C(F)(F)F)cc2-c2ccc3c(ccc4ccccc43)c2)cc1 [OSU03012] (first compound 0.004 µM, partner dose 1 µM) | 114 | 165 | 51.2 | 100 | 128 | 71.7 | 92.4 | 109 | 75.2 | 314 | 59.1 | 89 | 101 | 101 | 89.3 | 41.5
O=C(O)c1ccc2c(c1)nc(Nc1cccc(Cl)c1)c1ccncc12 + C[C@@H]1CCN(C(=O)CC#N)C[C@@H]1N(C)c1ncnc2[nH]ccc12 [CP690550] (first compound 0.4 µM, partner dose 1 µM) | 43.5 | 107 | 138 | 56 | 53.7 | 127 | 61.3 | 28.4 | 127 | 77.2 | 53.9 | 118 | 79.5 | 60 | 94.4 | 117
Cn1c(=O)n(-c2ccc(C(C)(C)C#N)cc2)c2c3cc(-c4cnc5ccccc5c4)ccc3ncc21 + CC(C)CCN1c2nc(Nc3cc(F)c(O)c(F)c3)ncc2N(C)C(=O)C1C [BID1870] (first compound 0.004 µM, partner dose 0.2 µM) | 90.8 | 48.2 | 61.9 | 88.5 | 176 | 98.7 | 30.2 | 138 | 139 | 299 | 155 | 117 | 105 | 66.3 | 79.7 | 255
Cc1cc(Nc2cc(N3CCN(C)CC3)nc(/C=C/c3ccccc3)n2)n[nH]1 + O=C(CCCCCCC(=O)Nc1ccccc1)NO [vorinostat] (first compound 0.04 µM, partner dose 0.08 µM) | 15.5 | 36.6 | 126 | 115 | 98.3 | 115 | 58.6 | 81.2 | 97.2 | 119 | 123 | 108 | 88.6 | 67.7 | 97.9 | 73.6
CC(C)C[C@H](NC(=O)[C@H](Cc1ccccc1)NC(=O)c1cnccn1)B(O)O [Bortezomib] + CS(=O)(=O)CCNCc1ccc(-c2ccc3ncnc(Nc4ccc(OCc5cccc(F)c5)c(Cl)c4)c3c2)o1 [lapatinib] (first compound 0.001 µM, partner dose 0.8 µM) | 212 | 45.7 | 207 | 175 | 136 | 89.1 | 105 |  |  | 136 | 125 | 169 | 157 | 59.9 | 536 | 45.7
CCCS(=O)(=O)Nc1ccc(F)c(C(=O)c2c[nH]c3ncc(Cl)cc23)c1F + CC1(C)NC(=O)N(c2ccc([N+](=O)[O-])c(C(F)(F)F)c2)C1=O [nilutamide] (first compound 0.08 µM, partner dose 1 µM) | 36.3 | 46.4 | 178 | 336 | 91.7 | 115 | 66 | 40.8 | 106 | 873 | 98.3 | 22.3 | 93.9 | 146 | 84.6 | 54.5
CC(C)C[C@H](NC(=O)[C@H](Cc1ccccc1)NC(=O)c1cnccn1)B(O)O [Bortezomib] + Cc1ccc(NC(=O)c2cccc(N(C)C)c2)cc1NC(=O)c1ccc(O)cc1 [ZM336372] (first compound 0.001 µM, partner dose 2 µM) | 538 | 77.9 | 64.9 | 347 | 35.1 | 71.7 | 68.5 | 156 | 229 | 92.1 | 205 | 1080 | 177 | 135 | 670 | 118
Nc1nc(F)nc2c1ncn2[C@@H]1O[C@H](CO)[C@@H](O)[C@@H]1O [fludarabine] + Cc1cc(N2CCOCC2)cc2[nH]c(-c3c(NC[C@@H](O)c4cccc(Cl)c4)cc[nH]c3=O)nc12 [BMS536924] (first compound 0.2 µM, partner dose 0.2 µM) | 107 | 726 | 43.9 | 49.2 | 167 | 318 | 1110 | 452 | 289 | 55.3 | 31.9 | 41 | 98.5 | 578 | 115 | 355
O=C(O)c1ccc2c(c1)nc(Nc1cccc(Cl)c1)c1ccncc12 + Cn1c(Nc2ccc(C(F)(F)F)cc2)nc2cc(Oc3ccnc(-c4ncc(C(F)(F)F)[nH]4)c3)ccc21 [CHIR265] (first compound 0.4 µM, partner dose 0.08 µM) | 116 | 432 | 73.5 | 393 | 106 | 242 | 968 |  |  | 101 | 1120 | 647 | 152 | 149 | 131 | 218
C=C(c1ccc(C(=O)O)cc1)c1cc2c(cc1C)C(C)(C)CCC2(C)C [Bexarotene] + COc1cc(N2CCC(N3CCN(C)CC3)CC2)ccc1Nc1ncc(Cl)c(Nc2ccccc2S(=O)(=O)C(C)C)n1 [NVP-TAE684] (first compound 2 µM, partner dose 0.08 µM) | 143 | 43.4 | 77.5 | 84.7 | 196 | 77.5 | 88.2 | 37.4 | 168 | 201 | 48.9 | 103 | 86.6 | 86 | 119 | 37
CC(C)C[C@H](NC(=O)[C@H](Cc1ccccc1)NC(=O)c1cnccn1)B(O)O [Bortezomib] + CCc1ccc(CCOc2ccc(CC3SC(=O)NC3=O)cc2)nc1 [pioglitazone] (first compound 0.001 µM, partner dose 2 µM) | 142 | 100 | 194 | 210 | 112 | 143 | 163 | 73.2 | 117 | 53.8 | 113 | 689 | 144 | 177 | 773 | 131
Nc1nc(F)nc2c1ncn2[C@@H]1O[C@H](CO)[C@@H](O)[C@@H]1O [fludarabine] + CN(NC(=O)CC(=O)NN(C)C(=S)c1ccccc1)C(=S)c1ccccc1 [STA4783] (first compound 0.2 µM, partner dose 0.006 µM) | 76.5 | 1660 | 48.3 | 69.7 | 41 | 524 | 332 | 181 | 643 | 91.5 | 145 | 113 | 195 | 258 | 182 | 637
Nc1ccn([C@@H]2O[C@H](CO)[C@@H](O)C2(F)F)c(=O)n1 [gemcitabine] + C=CCn1c(=O)c2cnc(Nc3ccc(N4CCN(C)CC4)cc3)nc2n1-c1cccc(C(C)(C)O)n1 [MK1775] (first compound 0.0004 µM, partner dose 0.02 µM) | 144 | 106 | 107 | 86.8 | 41.6 | 119 | 245 | 88.3 | 69.5 | 207 | 120 | 179 | 240 | 405 | 160 | 84.3
Cc1cc(Nc2cc(N3CCN(C)CC3)nc(/C=C/c3ccccc3)n2)n[nH]1 + Cc1cc([N+](=O)[O-])ccc1NS(=O)(=O)c1cc(Cl)ccc1Cl [FH535] (first compound 0.04 µM, partner dose 1 µM) | 106 | 65.3 | 71.7 | 111 | 204 | 112 | 23.7 | 83.3 | 84.1 | 150 | 130 | 170 | 99.8 | 162 | 84.4 | 341

Complete entries from above. Order of values: cleaved PARP positive nuclei fraction (MZ2-MEL) [%]	cleaved PARP positive nuclei fraction (MeWo) [%]	cleaved PARP positive nuclei fraction (RPMI7951) [%]	cleaved PARP positive nuclei fraction (RVH-421) [%]	cleaved PARP positive nuclei fraction (SkMel28) [%]	cleaved PARP positive nuclei fraction (SkMel2) [%]	cleaved PARP positive nuclei fraction (SkMel30) [%]	cleaved PARP positive nuclei fraction (SkMel5) [%]	cleaved PARP positive nuclei fraction (UACC257) [%]	cleaved PARP positive nuclei fraction (UACC62) [%]	cleaved PARP positive nuclei fraction (WM115) [%]	cleaved PARP positive nuclei fraction (WM1716) [%]	cleaved PARP positive nuclei fraction (WM1745) [%]	cleaved PARP positive nuclei fraction (WM3526) [%]	cleaved PARP positive nuclei fraction (WM3619) [%]	cleaved PARP positive nuclei fraction (WM451Lu) [%]
Cn1c(=O)n(-c2ccc(C(C)(C)C#N)cc2)c2c3cc(-c4cnc5ccccc5c4)ccc3ncc21 + CC(C)CCN1c2nc(Nc3cc(F)c(O)c(F)c3)ncc2N(C)C(=O)C1C [BID1870] (first compound 0.004 µM, partner dose 0.2 µM) as listed: 90.8	48.2	61.9	88.5	176	98.7	30.2	138	139	299	155	117	105	66.3	79.7	255
Nc1nc(F)nc2c1ncn2[C@@H]1O[C@H](CO)[C@@H](O)[C@@H]1O [fludarabine] + CN(NC(=O)CC(=O)NN(C)C(=S)c1ccccc1)C(=S)c1ccccc1 [STA4783] (first compound 0.2 µM, partner dose 0.006 µM) as listed: 76.5	1660	48.3	69.7	41	524	332	181	643	91.5	145	113	195	258	182	637
